Here are results for one compound from paper PMC5650530 (ACS chemical biology, 2017).

For the assay, the target named is T1, rSGPL1 (Rattus norvegicus, UniProt Q8CHN6).
T1 sequence (Q8CHN6 1-568): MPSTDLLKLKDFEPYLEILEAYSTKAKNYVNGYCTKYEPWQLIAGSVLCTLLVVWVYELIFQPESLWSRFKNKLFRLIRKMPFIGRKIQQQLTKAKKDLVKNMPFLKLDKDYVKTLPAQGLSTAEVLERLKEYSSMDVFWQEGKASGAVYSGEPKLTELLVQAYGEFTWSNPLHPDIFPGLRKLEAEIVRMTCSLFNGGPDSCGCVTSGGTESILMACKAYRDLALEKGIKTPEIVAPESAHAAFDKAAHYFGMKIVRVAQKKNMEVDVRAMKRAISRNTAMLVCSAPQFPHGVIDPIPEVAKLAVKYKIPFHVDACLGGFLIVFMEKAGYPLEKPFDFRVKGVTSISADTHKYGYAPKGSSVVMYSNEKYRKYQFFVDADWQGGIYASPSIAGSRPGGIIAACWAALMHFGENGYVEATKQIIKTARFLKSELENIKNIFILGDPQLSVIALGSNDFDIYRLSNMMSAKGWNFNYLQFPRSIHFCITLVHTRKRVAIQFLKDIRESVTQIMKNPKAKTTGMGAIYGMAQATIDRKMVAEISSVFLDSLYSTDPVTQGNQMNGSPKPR
The assay is classed as biochemical.

In turn, `Clc1ccc(COC(Cn2ccnc2)c2ccc(Cl)cc2Cl)c(Cl)c1` (stereo not shown) [miconazole] came in with an IC50 of 4.3 µM.

As a reminder, the IC50 is the concentration needed to halve the response being measured. Low readings indicate higher potency, high ones lower potency.
